Binding data for one molecule are collected here from patent US20240092836A1.

By UniProt entry, the sequences of proteins in these tests, tags left out. Where a name states a change or a piece, a line headed by the entry shows the natural chain unless it says otherwise.
UniProt P16410: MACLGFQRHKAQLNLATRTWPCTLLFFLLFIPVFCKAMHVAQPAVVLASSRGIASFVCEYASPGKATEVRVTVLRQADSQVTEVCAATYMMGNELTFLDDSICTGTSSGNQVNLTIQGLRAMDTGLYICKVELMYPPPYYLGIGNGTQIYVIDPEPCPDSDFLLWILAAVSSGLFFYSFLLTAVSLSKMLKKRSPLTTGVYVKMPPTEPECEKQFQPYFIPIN

The test concerns the target CTLA-4 expressed on the cell surface of CHO cells (Homo sapiens (Human)) (UniProt P16410). Put plainly: FACS on CHO cells expressing CTLA-4; Geom. Mean against peptide concentration, log(uM).

No constants are given. Whether binding was seen depends on the method and setting. Some entries that bind do so weakly or less than the wild type.

For CMHPFLPIVSHHFCER [No. #19 synthetic peptide used in FACS], the binding entry is “binds”.
